We go through 60 compounds from PubChem BioAssay AID2685 (National Center for Advancing Translational Sciences (NCATS), 2010).

The other results are listed elsewhere or left out. These are further read-outs of the screen, such as a control signal, another cell line or another target. No call is given for them. Most of these compounds were active or inconclusive in the main read-out, so they are no random draw. Words in brackets tell the shape of the fitted curve; partial curves, single points and poor fits give uncertain potencies.

The test in a line: qHTS Assay for Lipid Storage Modulators in Drosophila S3 Cells.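 As to cell number change: cells counted by Cell Tracker Red CMTPX staining in the red channel.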 As to conditions: BODIPY lipid droplet fluorescence, 18-24 h; for cell number change: measured here: cell count max response, cells fed with added oleic acid. The method in brief:
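Drosophila S3 cells got compounds at several concentrations plus oleic acid (400 uM solution). Laser-scanning cytometry with 488 nm excitation read lipid droplets at 500-530 nm and cells at 575-640 nm. Percent activity was relative to 20 uM Triacsin C.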

Where [1] appears, read: measured here: lipid fluorescence (Fed channel) AC50, cells fed with added oleic acid.
Where [2] appears, read: measured here: cell number channel AC50, cells fed with added oleic acid.

With `CC(=O)Nc1sc2c(c1C#N)CC(C)(C)NC2(C)C`, the cell number change is 0.286%. Moreover, the concentration at half-maximal activity (AC50) under setting [1] was 29.1 µM [falling, single point].

Regarding `CCC1(CC)NC(=O)N(CC(=O)NCc2ccc3c(c2)OCO3)C1=O`, under setting [2], the AC50 was 0.103 µM [rising, full curve, poor fit].

On to `O=C(CSc1cn(CCNC(=O)c2cccs2)c2ccccc12)NCC1CCCO1` (stereo not given), for which the AC50 under setting [2] was 3.26 µM [rising, single point] and the AC50 under setting [1] is 6.51 µM [rising, single point].

With `O=C(CC1Sc2ccccc2NC1=O)NCc1ccc(Cl)cc1` (stereo not given), the cell number change is 6.51%.

Turning to `NS(=O)(=O)c1ccc(N/C=C\C(=O)c2ccc3ccccc3c2)cc1`, the cell number change worked out at 189%. Further, under setting [2], the AC50 is 16.4 µM [rising, partial curve]. For the same compound, the half-maximal activity concentration (AC50) under setting [1] is 25.9 µM [rising, partial curve].

`O=C(Nc1ccccc1)c1cc2c(=O)c3ccccc3oc2nc1C(F)(F)F`: the cell number change was -5.35%. Besides, the AC50 under setting [1] is 29.1 µM [rising, single point].

`CCOC(=O)C1=c2/c(=C/c3ccncc3)c(N)c(C(=O)OC)n2C(=O)C(c2ccncc2)S1` (stereo not given): the cell number change was -54.7%.

As to `O=C(CN1C(=O)NC2(CCCCC2)C1=O)N1CCN(S(=O)(=O)c2ccc(F)c(F)c2F)CC1`, the AC50 under setting [2] was 1.84 µM [rising, single point].

Consider `CCOC(=O)CC(=O)CSc1nc2ccc(C)cc2cc1C#N`, for which the cell number change was 23%. Besides, the AC50 under setting [1] was 14.6 µM [rising, partial curve].

`CCOC(=O)c1cnc2ccc(OCC)cc2c1NCc1ccccc1OC`: the cell number change worked out at 16%. In addition, the AC50 under setting [1] was 0.291 µM [rising, partial curve, poor fit].

For the compound `CCN(c1ccccc1)S(=O)(=O)c1ccc(NC(=O)c2nc(S(C)(=O)=O)ncc2Cl)cc1`, the cell number change was determined as 61.1%.

Consider `Cc1cc(C)n2c(Br)c(CN3CCCC(C)C3)nc2n1` (stereo not given), for which the concentration at half-maximal activity (AC50) was 0.58 µM [rising, single point] under setting [2] and 0.58 µM [rising, single point] under setting [1].

For the compound `CC(NC(=O)c1cc2ccccc2o1)c1cccs1` (stereo not given), the cell number change was found to be 6.13%. In addition, the AC50 under setting [1] was 6.51 µM [rising, single point].

In the case of `COc1ccc(C(=O)CCC(=O)Nc2ccc(Cl)cc2)cc1`, the cell number change is 35.4%. Also, the AC50 under setting [1] is 9.2 µM [rising, single point].

`CSc1nnc(NC(=O)c2nc(S(=O)(=O)Cc3cccc(C)c3)ncc2Cl)s1`: the cell number change is -27.7%. Further, under setting [2], the half-maximal activity concentration (AC50) is 0.461 µM [falling, full curve, poor fit]. In addition, under setting [1], the AC50 was 3.66 µM [falling, partial curve].

For the compound `CCOC(=O)c1cnc(-n2nc(C)cc2C)nc1N(CC)CC`, the cell number change is -2.66%. For the same compound, the AC50 under setting [1] was 29.1 µM [rising, single point].

`O=C(O)CCCC(=O)N1N=C(c2ccco2)CC1c1ccco1` (stereo not given): the cell number change was -2.36%. Besides, the AC50 under setting [1] was 25.9 µM [rising, single point].

As for `O=S(=O)(c1cccs1)N1CN(CC2CCCO2)c2nc3ccccc3nc21` (stereo not given), the cell number change stood at 12.5%. Besides, the AC50 under setting [2] is 0.92 µM [rising, full curve, poor fit]. Also, the AC50 under setting [1] was 1.3 µM [rising, partial curve].

Turning to `COc1cc(NC(=O)c2ccno2)cc(C(=O)Nc2cccc(C(F)(F)F)c2)c1`, the cell number change was 5.17%. The AC50 under setting [1] was 2.59 µM [rising, single point].

With `CC(CN1CCCCC1)OC(=O)c1cccc(F)c1` (stereo not given), the cell number change was found to be 24.3%. Also, the AC50 under setting [1] was 0.082 µM [rising, full curve, poor fit].

Take `CCOC(=O)c1cccc(NC(=O)CCNS(=O)(=O)c2cc(Br)cnc2N)c1`: the cell number change is -0.989%.

`Cc1ccc(S(=O)(=O)N(C)c2ccc(OCC(=O)Nc3nc4c(ccc5ccccc54)s3)cc2)cc1`: the cell number change is -30.3%. Further, the half-maximal activity concentration (AC50) under setting [2] is 13 µM [falling, partial curve, poor fit].

`Cc1ccccc1-c1nc(-c2ccccn2)no1`: under setting [2], the AC50 is 6.51 µM [rising, single point].

With `O=C(Nc1ccc2ccccc2c1)N1CCCN(CCOc2ccccc2)CC1`, the cell number change was -11.8%. For the same compound, the AC50 under setting [1] is 0.103 µM [rising, full curve, poor fit].

As to `CCN1CCN(CC(=O)Nc2nc3ccc(C)cc3s2)CC1`, the cell number change was -13%. Also, under setting [1], the AC50 was 0.00651 µM [falling, full curve, poor fit].

With `CC(C)c1ccc(N(CC(=O)NCc2ccco2)C(=O)CCC(=O)Nc2nccs2)cc1`, the cell number change is 3.97%. The AC50 under setting [1] is 16.4 µM [rising, partial curve].

On to `O=C(Nc1ccccc1C(F)(F)F)N1CCCCCC1`, for which the cell number change is -2.77%.

Turning to `O=S(=O)(NCCNc1nccc(C(F)(F)F)n1)c1ccccc1`, the cell number change is 21.9%. Also, the AC50 under setting [1] is 29.1 µM [rising, single point].

On to `COc1cccc(NC(=O)Cn2nnc(-c3ccccc3N)n2)c1`, for which the cell number change is 31.1%. Also, the AC50 under setting [2] was 0.231 µM [rising, full curve].

On to `CN(C(=O)COC(=O)c1cc(=O)[nH]c2ccccc12)C1CCCCC1`, for which the cell number change was -59.5%. Moreover, the AC50 under setting [2] was 16.4 µM [falling, single point]. Under setting [1], the AC50 is 29.1 µM [falling, single point].

For `CC(=O)Oc1cc(C(C)C)c(OCCN(C)C)cc1C`, the cell number change was determined as 42.7%. Moreover, the AC50 under setting [2] was 23.1 µM [rising, partial curve]. Further, under setting [1], the AC50 is 18.4 µM [rising, single point].

In the case of `O=C(c1noc2c1CCCC2)N1CCc2ccccc2C1`, the cell number change stood at 34.2%. Also, under setting [2], the AC50 is 32.6 µM [rising, partial curve, poor fit].

Consider `COc1ccc(C(=O)CCc2ccccc2)cc1`, for which the cell number change was 11.2%. For the same compound, the AC50 under setting [1] was 13 µM [rising, partial curve, poor fit].

For the compound `CC(C)COC(=O)C1[C@H]2C(=O)N(Cc3cccs3)C[C@]23C=C[C@H]1O3` (stereo not given in full), the cell number change is -20.5%. The AC50 under setting [1] is 25.9 µM [falling, partial curve].

Take `O=c1cc(CSc2nnc(COc3ccc(Cl)cc3)o2)c2ccccc2[nH]1`: the cell number change came to 24.3%. Besides, the AC50 under setting [2] was 2.91 µM [rising, single point]. Further, the AC50 under setting [1] was 14.6 µM [rising, partial curve].

Turning to `COc1ccc(/C=N/n2cnc3c([nH]c4ccccc43)c2=O)cc1CO`, the cell number change amounted to 57.7%. The AC50 under setting [2] is 0.517 µM [rising, full curve, poor fit]. For the same compound, the half-maximal activity concentration (AC50) under setting [1] is 6.51 µM [rising, partial curve].

Consider `Cc1c(/C=N/Nc2nc3ccccc3[nH]2)c2ccccc2n1C`, for which the cell number change was -63.5%. Moreover, the AC50 under setting [2] was 5.8 µM [falling, full curve].

In the case of `CP(=O)(COC(=O)c1ccccc1)COC(=O)c1ccccc1`, the cell number change stood at 17.6%. For the same compound, the concentration at half-maximal activity (AC50) under setting [1] is 29.1 µM [falling, single point].

Regarding `O=C(CSc1nc2scc(-c3ccco3)c2c(=O)n1-c1ccccc1)NCC1CCCO1` (stereo not given), the cell number change is -27.8%. In addition, the AC50 under setting [1] is 29.1 µM [falling, partial curve, poor fit].

Consider `Cn1sc(NC(=O)c2ccccc2Cl)nc1=O`, for which the cell number change was 184%. Besides, the half-maximal activity concentration (AC50) under setting [2] was 18.4 µM [rising, single point].

Regarding `C/C(=N\NC=O)c1ccncc1`, the cell number change worked out at 19.4%. For the same compound, under setting [1], the half-maximal activity concentration (AC50) was 1.46 µM [falling, partial curve].

In the case of `O=S(=O)(NCc1ccco1)c1ccc(Cl)cc1Cl`, the cell number change was -6.72%.

For `CS(=O)(=O)N1CCC(C(=O)Nc2ccc3c(c2)OCO3)CC1`, under setting [1], the AC50 is 0.82 µM [falling, single point].

Take `CC(C)N1CCc2c(sc(NC(=O)c3ccc4ccccc4c3)c2C(N)=O)C1`: the cell number change was -28.2%.

Regarding `COc1ccc(N=C2C(=Nc3ccc(OC)cc3)N(c3ccc(OC)cc3)C(=S)N2C(=O)c2ccc(OC)cc2)cc1`, the AC50 is, setting by setting: under setting [2], 0.461 µM [falling, full curve]; under setting [1], 0.517 µM [falling, full curve].

With `COc1ccccc1NC(=O)CN1CCC(n2nnc3cc(F)ccc32)CC1`, the cell number change is -5.21%. In addition, under setting [1], the AC50 is 6.51 µM [rising, single point].

Regarding `O=C(NCCc1ccc(Cl)cc1)C1COc2ccccc2O1` (stereo not given), the cell number change amounted to 20.2%. Further, the AC50 under setting [1] was 29.1 µM [falling, single point].

As to `COc1cccc(-n2nnc3c(=O)n(CC(=O)Nc4ccccc4C)cnc32)c1`, the cell number change came to 30.2%. Besides, the half-maximal activity concentration (AC50) under setting [2] was 1.3 µM [rising, partial curve]. Also, the AC50 under setting [1] is 0.146 µM [rising, full curve].

Take `COc1ccc(NC(=O)CCn2ccnc2)c(OC)c1`: the AC50 under setting [1] was 5.17 µM [falling, single point].

On to `COC(=O)CC1COc2ccccc2N1C(=O)c1ccc(Br)cc1` (stereo not given), for which the half-maximal activity concentration (AC50) under setting [1] is 6.51 µM [falling, single point].

In the case of `Cc1ccc(OCCCC(=O)Nc2ccc(Cl)c(S(=O)(=O)N3CCOCC3)c2)cc1`, the cell number change is -6.39%. In addition, the AC50 under setting [1] was 29.1 µM [falling, partial curve, poor fit].

On to `Cc1cc(=O)[nH]c(SCC(=O)Nc2ccccc2[N+](=O)[O-])n1`, for which the cell number change is 30.4%. For the same compound, the AC50 under setting [2] is 0.92 µM [rising, full curve, poor fit]. Further, under setting [1], the AC50 is 2.06 µM [rising, full curve, poor fit].

`CNS(=O)(=O)c1cc(C(=O)NCc2ccco2)ccc1Cl`: the cell number change turned out to be 46%. Besides, the AC50 under setting [2] was 29.1 µM [rising, single point].

With `CCN1C(=O)CC(N2CCC(C(=O)OC)CC2)C1=O` (stereo not given), the AC50 under setting [2] was 0.0731 µM [falling, full curve].

`COc1cccc(OC)c1C(=O)Nc1ccc2c(c1)CCCN2S(=O)(=O)c1ccc(C)cc1`: the cell number change is -12.2%. The concentration at half-maximal activity (AC50) under setting [1] is 23.1 µM [rising, single point].

In the case of `O=C(Cc1cccs1)Nc1cccnc1`, the cell number change turned out to be 59.5%. Under setting [2], the AC50 is 20.6 µM [rising, single point]. Moreover, the AC50 under setting [1] is 0.116 µM [falling, full curve, poor fit].

In the case of `COc1ccccc1CCNC(C)CCc1ccc(O)cc1` (stereo not given), the cell number change was -21.8%. Moreover, the AC50 under setting [1] is 0.58 µM [rising, single point].

In the case of `O=C(c1cc2c(ccc3ccccc32)oc1=O)N1CCCC1`, the cell number change is -4.58%. Moreover, the AC50 under setting [1] was 2.06 µM [falling, partial curve].

As to `CC(C)(C)c1ccc(Cn2nc(CC(=O)O)c3ccccc3c2=O)cc1`, the cell number change was 108%.

In the case of `O=C(Cn1c(=O)c(=O)n(Cc2ccccc2)c2ccc(Cl)cc21)Nc1ccc(F)cc1F`, the cell number change was -24.4%. Besides, the AC50 under setting [1] is 0.1 µM [falling, full curve, poor fit].
